In this test the target is huIL-17RA-FLAG-polyHis (human) (UniProt Q96F46). In words: multiplexed Luminex bead cross-competition.

Sequences of proteins named here, by UniProt entry; tags and fusion partners are left off. A change or cut given only in a name is not applied to a line headed by its entry.
UniProt Q96F46: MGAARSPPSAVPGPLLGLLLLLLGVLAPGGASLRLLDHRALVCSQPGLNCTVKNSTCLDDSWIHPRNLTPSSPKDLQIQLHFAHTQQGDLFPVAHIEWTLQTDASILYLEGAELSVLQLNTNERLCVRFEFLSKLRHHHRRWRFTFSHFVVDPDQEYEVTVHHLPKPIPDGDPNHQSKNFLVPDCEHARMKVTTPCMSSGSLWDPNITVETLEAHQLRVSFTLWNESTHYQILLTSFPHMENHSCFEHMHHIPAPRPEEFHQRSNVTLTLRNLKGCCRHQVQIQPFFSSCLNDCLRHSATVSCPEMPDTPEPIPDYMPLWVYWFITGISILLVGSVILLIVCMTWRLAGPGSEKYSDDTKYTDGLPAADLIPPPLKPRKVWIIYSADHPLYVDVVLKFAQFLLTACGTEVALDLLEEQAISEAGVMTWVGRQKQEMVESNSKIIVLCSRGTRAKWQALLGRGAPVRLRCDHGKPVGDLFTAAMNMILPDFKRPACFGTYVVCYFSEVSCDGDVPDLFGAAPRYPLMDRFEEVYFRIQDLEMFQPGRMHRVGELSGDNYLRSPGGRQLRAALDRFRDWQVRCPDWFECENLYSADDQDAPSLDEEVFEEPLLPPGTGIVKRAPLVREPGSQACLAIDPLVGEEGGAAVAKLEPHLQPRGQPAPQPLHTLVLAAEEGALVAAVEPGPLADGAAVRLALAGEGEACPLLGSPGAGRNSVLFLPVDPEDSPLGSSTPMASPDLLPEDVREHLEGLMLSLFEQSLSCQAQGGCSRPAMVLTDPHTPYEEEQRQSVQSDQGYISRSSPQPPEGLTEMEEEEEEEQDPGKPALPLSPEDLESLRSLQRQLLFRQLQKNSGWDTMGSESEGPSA

No constants are given. Whether binding was seen depends on the method and setting. Some entries that bind do so weakly or less than the wild type.

B1: AMH7/AML7 (antibody, IgG2, V domains shown)
VH: QVQLVQSGAEVKKPGASVKVSCKASGYTLTRYGISWVRQAPGQGLEWMGWISAYNGNTNYAQKLQGRVTMTTDTSTSTAYMELRSLRSDDTAVYYCARRDYDILTGYYNGFDPWGQGTLVTVSS
VL: DIQMTQSPSSLSASVGDRVTITCRASQGIRNDLGWYQQKPGKAPKRLIYAASSLQSGVPSRFSGSGSGTEFTLTISSLQPEDFATYYCLQHKSYPLTFGGGTKVEIK
As to B1, the binding result was “binds”.

B2: AMH6/AML6 (antibody, IgG2, V domains shown)
VH: B1 VH
VL: B1 VL
As to B2, the binding result is “binds”.
